Holding throughout (test): co-IP; HEK293T cells overexpressing Grm4-DYDDK or Grm5-DYDDK together with V5-tagged NPDC1; V5 beads, and in reverse DYDDK beads; anti-V5 and anti-DYDDK blots
For assay [1], the target named is T1, Neuronal Proliferation, Differentiation and Control 1 (NPDC1), V5-tagged (human) (UniProt Q9NQX5).
T1 sequence: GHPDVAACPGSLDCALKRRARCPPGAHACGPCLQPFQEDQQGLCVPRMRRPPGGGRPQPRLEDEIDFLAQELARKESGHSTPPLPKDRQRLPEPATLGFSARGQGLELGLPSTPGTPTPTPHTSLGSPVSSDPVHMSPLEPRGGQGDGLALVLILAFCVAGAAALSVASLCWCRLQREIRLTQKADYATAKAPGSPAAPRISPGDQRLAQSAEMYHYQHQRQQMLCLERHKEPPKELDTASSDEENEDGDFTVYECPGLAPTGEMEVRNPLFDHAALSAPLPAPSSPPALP

By UniProt entry, the sequences of proteins in these tests, tags left out. Residues count along the entry.
UniProt Q68EF4, residues 33-912: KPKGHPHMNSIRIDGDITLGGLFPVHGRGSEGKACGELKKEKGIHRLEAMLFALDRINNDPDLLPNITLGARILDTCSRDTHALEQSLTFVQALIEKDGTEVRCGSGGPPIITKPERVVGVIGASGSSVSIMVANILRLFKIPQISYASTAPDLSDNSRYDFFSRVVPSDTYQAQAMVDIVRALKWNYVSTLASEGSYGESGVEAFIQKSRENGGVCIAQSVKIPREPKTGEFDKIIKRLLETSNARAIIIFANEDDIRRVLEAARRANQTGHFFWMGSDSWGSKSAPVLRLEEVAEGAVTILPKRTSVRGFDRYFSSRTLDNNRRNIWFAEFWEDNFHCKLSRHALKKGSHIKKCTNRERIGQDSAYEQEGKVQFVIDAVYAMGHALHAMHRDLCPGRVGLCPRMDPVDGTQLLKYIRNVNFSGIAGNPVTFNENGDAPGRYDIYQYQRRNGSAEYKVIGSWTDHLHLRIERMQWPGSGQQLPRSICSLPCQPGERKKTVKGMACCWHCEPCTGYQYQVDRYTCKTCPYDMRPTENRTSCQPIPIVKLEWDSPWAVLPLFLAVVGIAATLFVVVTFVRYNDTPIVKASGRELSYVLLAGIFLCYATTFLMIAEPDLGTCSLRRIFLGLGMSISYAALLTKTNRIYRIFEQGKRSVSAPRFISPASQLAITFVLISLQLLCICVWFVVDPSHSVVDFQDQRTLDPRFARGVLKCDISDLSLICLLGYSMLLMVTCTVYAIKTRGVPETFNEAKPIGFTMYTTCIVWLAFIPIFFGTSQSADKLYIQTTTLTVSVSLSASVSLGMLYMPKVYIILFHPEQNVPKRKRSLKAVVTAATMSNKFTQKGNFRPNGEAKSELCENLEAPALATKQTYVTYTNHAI
UniProt Q3UVX5, residues 19-1203: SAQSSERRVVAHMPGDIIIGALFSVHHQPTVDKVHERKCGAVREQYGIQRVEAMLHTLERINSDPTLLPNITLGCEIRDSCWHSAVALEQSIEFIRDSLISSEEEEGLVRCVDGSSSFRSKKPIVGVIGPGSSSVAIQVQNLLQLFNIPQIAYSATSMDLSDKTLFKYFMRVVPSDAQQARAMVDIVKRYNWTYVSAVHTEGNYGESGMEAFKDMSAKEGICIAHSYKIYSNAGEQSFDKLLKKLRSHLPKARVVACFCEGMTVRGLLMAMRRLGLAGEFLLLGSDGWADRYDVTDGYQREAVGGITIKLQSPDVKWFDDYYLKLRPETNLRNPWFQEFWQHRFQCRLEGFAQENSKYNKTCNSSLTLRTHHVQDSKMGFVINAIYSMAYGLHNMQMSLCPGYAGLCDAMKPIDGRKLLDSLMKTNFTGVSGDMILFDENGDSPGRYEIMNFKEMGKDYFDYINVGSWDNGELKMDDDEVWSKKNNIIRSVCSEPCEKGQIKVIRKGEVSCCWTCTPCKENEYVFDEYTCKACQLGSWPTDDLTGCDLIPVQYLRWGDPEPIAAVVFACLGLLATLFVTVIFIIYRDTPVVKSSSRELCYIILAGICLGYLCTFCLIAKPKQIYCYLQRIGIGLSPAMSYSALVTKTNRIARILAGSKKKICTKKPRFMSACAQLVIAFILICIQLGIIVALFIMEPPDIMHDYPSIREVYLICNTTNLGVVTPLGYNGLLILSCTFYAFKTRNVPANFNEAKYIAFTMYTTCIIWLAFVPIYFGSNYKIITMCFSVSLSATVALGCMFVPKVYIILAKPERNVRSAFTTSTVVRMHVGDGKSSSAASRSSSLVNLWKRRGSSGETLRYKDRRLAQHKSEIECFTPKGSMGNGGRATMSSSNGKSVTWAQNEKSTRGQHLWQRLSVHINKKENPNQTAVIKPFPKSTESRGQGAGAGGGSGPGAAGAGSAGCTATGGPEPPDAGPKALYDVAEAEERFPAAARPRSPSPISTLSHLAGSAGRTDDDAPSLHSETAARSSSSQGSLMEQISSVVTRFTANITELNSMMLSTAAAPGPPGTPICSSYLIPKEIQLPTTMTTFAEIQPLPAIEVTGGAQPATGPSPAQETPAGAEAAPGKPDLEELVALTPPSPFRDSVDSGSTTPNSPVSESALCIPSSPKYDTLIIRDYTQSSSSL

The target of the next assay is Grm4-DYDDK (UniProt Q68EF4).
The next assay has as its target Grm5-DYDDK (UniProt Q3UVX5).

These are yes or no findings as the source states them, for the method shown. Binding seen in cells or lysates may run through a third protein. Some entries that bind do so weakly or less than the wild type. Where a sequence is shown, tags or fusion partners need not be part of it.

As for “Grm5-DYDDK (from UniProt Q3UVX5 19-1203) (receptor)”, the binding result in assay [1] was “no binding”.

B1: Neuronal Proliferation, Differentiation and Control 1 (NPDC1), V5-tagged (receptor, UniProt Q9NQX5 35-325)
chain: T1 sequence
Consider B1, for which the binding result is recorded as “binds” with Grm4-DYDDK and “no binding” with Grm5-DYDDK.

Values taken from paper doi:10.1101/2025.07.16.665194.
